The record followed here is PubChem BioAssay AID2685 (National Center for Advancing Translational Sciences (NCATS), 2010).

Molecules are shown by their SMILES. This is one part of the list. The main result of the screen is listed elsewhere. These columns were measured beside it and carry no call. Compounds called inactive in the main read-out are mostly missing here. The note in brackets gives the kind of curve behind each potency; many fits are weak.

This test is described as follows: qHTS Assay for Lipid Storage Modulators in Drosophila S3 Cells.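 For cell number change: cells counted by Cell Tracker Red CMTPX staining in the red channel.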 The settings on record: BODIPY lipid droplet fluorescence, 18-24 h; for cell number change: measured here: cell count max response, cells fed with added oleic acid. The procedure, abridged: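 Laser-scanning cytometry quantifies lipid droplet accumulation (500–530 nm total intensity; droplet/cell object ratio) in oleic acid-fed (400 uM added) Drosophila S3 cells treated with a concentration series. 20 uM Triacsin C defined 100% inhibition.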

The mark [1] stands for this setting: measured here: cell number channel AC50, cells fed with added oleic acid.
[2] abbreviates: measured here: lipid fluorescence (Fed channel) AC50, cells fed with added oleic acid.

Regarding `CCN(CCNC(=O)CN(C)S(=O)(=O)c1cccc2nsnc12)c1ccccc1`, the AC50 under setting [1] was 6.51 µM [rising, single point] and the AC50 under setting [2] was 6.51 µM [rising, single point].

For the compound `Cc1onc(-c2ccccc2)c1C(=O)N1CCN(c2ccccc2F)CC1`, the cell number change was -7.89%.

Regarding `O=C(NC(=O)N1CCN(c2ccccc2F)CC1)c1ccccc1`, the cell number change was found to be 13.5%. The AC50 under setting [2] was 5.8 µM [rising, partial curve].

On to `COc1ccccc1NC(=O)CSc1nnnn1-c1ccccc1F`, for which the cell number change was 16.4%. Under setting [2], the AC50 was 29.1 µM [rising, single point].

`COc1ccc(-c2ccc(SCC(=O)c3cccs3)nn2)cc1OC`: the cell number change amounted to 13.9%. In addition, under setting [2], the AC50 was 0.082 µM [falling, single point].

In the case of `OCC[C@H]1C[C@H](O)[C@@H](O)[C@@]2(Cc3ccccc3CCO2)O1`, the cell number change was -34.2%. In addition, under setting [1], the AC50 was 2.91 µM [falling, partial curve]. The AC50 under setting [2] is 3.66 µM [falling, partial curve].

On to `CN(C)S(=O)(=O)c1ccc(C(=O)Nc2ccc3c(c2)CCC3)cc1`, for which the cell number change is 9.68%. Besides, the half-maximal activity concentration (AC50) under setting [2] was 29.1 µM [falling, single point].

For `CCOc1ccc(CCNC(=O)Cn2ncn3nc(-c4ccc(OC)cc4)cc3c2=O)cc1OCC`, the cell number change was -27%. Also, the concentration at half-maximal activity (AC50) under setting [2] was 16.4 µM [falling, partial curve].

Take `O=C(O)CCSc1ccc2ccccc2n1`: the cell number change was 6.99%. Under setting [2], the AC50 was 0.0058 µM [falling, full curve, poor fit].

Turning to `O=C(Nc1nnc(SCc2ccccc2Cl)s1)C1COc2ccccc2O1` (stereo not drawn), the cell number change was -17.6%. For the same compound, under setting [2], the concentration at half-maximal activity (AC50) was 0.146 µM [falling, full curve, poor fit].

For the compound `O=C(O)Cn1c(SCCOc2ccc(Cl)cc2)nc2ccccc21`, the cell number change was determined as 14%. Also, the AC50 under setting [2] is 18.4 µM [rising, partial curve].

With `Cc1ccc(S(=O)(=O)N2CCCCC2)cc1NC(=O)C1CC(=O)N(Cc2ccccc2)C1` (stereo not drawn), the cell number change was -6.59%. Besides, under setting [2], the AC50 is 2.31 µM [falling, full curve, poor fit].

Turning to `C/C(=N\NC(=O)C1(C)CC1(Br)Br)c1ccc(NC(=O)c2ccc(C)o2)cc1` (stereo not drawn), the cell number change is -66.2%. For the same compound, the half-maximal activity concentration (AC50) under setting [1] was 20.6 µM [falling, partial curve, poor fit]. Moreover, the half-maximal activity concentration (AC50) under setting [2] is 23.1 µM [falling, single point].

Regarding `CCCNS(=O)(=O)c1ccc(OCC(=O)Nc2ccc3c(c2)OCCO3)c(C)c1`, the cell number change worked out at 7.7%.

Turning to `CCOc1ccccc1OCC(=O)Nc1ccc(Cl)cc1Cl`, the cell number change is -1.19%. The concentration at half-maximal activity (AC50) under setting [1] is 7.31 µM [rising, partial curve, poor fit].

For the compound `O=C(CN(C(=O)c1ccccc1Cl)C1CCCCC1)Nc1ccc(Cl)c([N+](=O)[O-])c1`, the cell number change was found to be 13.5%. Under setting [2], the AC50 is 25.9 µM [falling, single point].

For `COC(=O)c1ccc2ccn(CC(=O)NC(C)C)c2c1`, the cell number change was found to be 23.2%. Also, the AC50 under setting [2] was 29.1 µM [rising, single point].

Turning to `COc1ccccc1-c1cc(C(=O)N/N=C/C=C/c2ccccc2[N+](=O)[O-])c2ccccc2n1`, the cell number change was found to be 46.6%. Besides, the AC50 under setting [1] was 0.326 µM [rising, full curve]. Moreover, the AC50 under setting [2] was 2.91 µM [rising, partial curve].

For `O=C(COC(=O)[C@H](Cc1c[nH]c2ccccc12)NC(=O)c1cccs1)NCc1ccccc1`, the cell number change is 64.4%. Also, the AC50 under setting [1] is 29.1 µM [rising, single point]. For the same compound, the AC50 under setting [2] was 29.1 µM [falling, single point].

As to `CC(C)(O)C#Cc1ccc(CN2CCC(CO)(CCc3ccccc3)CC2)cc1`, the cell number change was 13.2%. Besides, under setting [2], the AC50 is 0.366 µM [rising, partial curve, poor fit].

With `O=C(CCN1C(=O)C2C3C=CC(C3)C2C1=O)Nc1nccs1` (stereo not drawn), the cell number change is 24.8%.

As for `CN(c1ccc(C(=O)NC2CC3CCC2C3)cc1)S(C)(=O)=O` (stereo not drawn), the cell number change was -14.6%.

As to `CC(=O)c1ccc(S(=O)(=O)N2CCn3cccc3C2C)cc1` (stereo not drawn), the cell number change was found to be 5.06%. Further, under setting [2], the AC50 was 0.00461 µM [rising, full curve, poor fit].

In the case of `Cc1[nH]n(-c2ccccc2)c(=O)c1C=Nc1ccc(S(=O)(=O)N(C)C)cc1`, the cell number change was 13.6%. Besides, the AC50 under setting [2] was 0.651 µM [rising, partial curve, poor fit].

Take `COc1ccc(N2CCN(Cc3nc4c(c(=O)n(C)c(=O)n4C)n3Cc3cccc(C)c3)CC2)cc1`: the cell number change was -24.9%. Besides, the concentration at half-maximal activity (AC50) under setting [2] is 6.51 µM [falling, partial curve].

Consider `Cc1ccc(S(=O)(=O)Cn2nnnc2C(CC(C)C)N2CCC(C(N)=O)CC2)cc1` (stereo not drawn), for which the cell number change is -1.74%. Also, the AC50 under setting [2] was 29.1 µM [falling, single point].

In the case of `CCOC(CNC(=O)c1ccc2c(c1)nc(C)n2-c1cccc(F)c1)OCC`, the cell number change amounted to 9.2%. Moreover, the AC50 under setting [2] was 0.58 µM [rising, full curve, poor fit].

For the compound `O=C(OCC(=O)N1CCCC1=O)c1cc2ccccc2o1`, the cell number change stood at 22.5%. Under setting [2], the AC50 is 20.6 µM [rising, single point].

Consider `CC(C)Cn1c(N)c(C(=O)COC(=O)C2Cc3ccccc3CN2S(C)(=O)=O)c(=O)n(C)c1=O` (stereo not drawn), for which the cell number change is -53.4%. Also, under setting [1], the AC50 is 13 µM [falling, partial curve]. Further, the AC50 under setting [2] was 20.6 µM [falling, partial curve].

For `O=C(NCCO)C(=O)NCC1CCCN1S(=O)(=O)c1cccs1` (stereo not drawn), the cell number change is -22.9%.

Take `Cn1cnnc1SCC(=O)Nc1ccccc1C(=O)NC1CCCC1`: the cell number change is 15.9%. In addition, the AC50 under setting [2] is 0.82 µM [falling, full curve, poor fit].

Take `COc1ccc(Nc2c3c(c(C#N)c4nc5ccccc5n24)CCC3)cc1`: the cell number change is -33.5%. In addition, the AC50 under setting [1] was 1.46 µM [falling, full curve].

For `O=[N+]([O-])c1cccc(NC(=S)N2CCc3ccccc32)c1`, the cell number change was -16.5%. In addition, the AC50 under setting [2] is 0.13 µM [falling, full curve, poor fit].

`Cc1cccc(N2CCN(C(=O)c3nn(C)c4c3CS(=O)(=O)c3ccccc3-4)CC2C)c1` (stereo not drawn): the cell number change stood at 12.2%.

As for `Nc1nc2c(ncn2[C@H]2C[C@H](O)[C@@H](CO)O2)c(=O)[nH]1`, the cell number change was -55.4%. Also, under setting [1], the AC50 was 18.4 µM [falling, partial curve, poor fit]. Also, under setting [2], the AC50 was 7.31 µM [falling, single point].

Take `COc1ccc(C(C(=O)NC2CCCC2)N(CCC(C)C)C(=O)CCC(=O)Nc2cc(C)on2)cc1` (stereo not drawn): the cell number change is -21.8%.

Take `CC(=O)Nc1ccc(S(=O)(=O)N2CCC(C(=O)NCc3cccnc3)CC2)cc1`: the cell number change was -0.85%. The AC50 under setting [1] was 0.146 µM [falling, full curve, poor fit].
